These are yes or no findings as the source states them, for the method shown. In cells and extracts the contact can be indirect. A yes stands for co-enrichment or nearness to the bait. Other partners may have been found. No binding means not detected with the bait. Tags and fused reporters may be left off the sequences shown.

Amino acid sequences for entries named in this document (tags omitted).
UniProt O94649: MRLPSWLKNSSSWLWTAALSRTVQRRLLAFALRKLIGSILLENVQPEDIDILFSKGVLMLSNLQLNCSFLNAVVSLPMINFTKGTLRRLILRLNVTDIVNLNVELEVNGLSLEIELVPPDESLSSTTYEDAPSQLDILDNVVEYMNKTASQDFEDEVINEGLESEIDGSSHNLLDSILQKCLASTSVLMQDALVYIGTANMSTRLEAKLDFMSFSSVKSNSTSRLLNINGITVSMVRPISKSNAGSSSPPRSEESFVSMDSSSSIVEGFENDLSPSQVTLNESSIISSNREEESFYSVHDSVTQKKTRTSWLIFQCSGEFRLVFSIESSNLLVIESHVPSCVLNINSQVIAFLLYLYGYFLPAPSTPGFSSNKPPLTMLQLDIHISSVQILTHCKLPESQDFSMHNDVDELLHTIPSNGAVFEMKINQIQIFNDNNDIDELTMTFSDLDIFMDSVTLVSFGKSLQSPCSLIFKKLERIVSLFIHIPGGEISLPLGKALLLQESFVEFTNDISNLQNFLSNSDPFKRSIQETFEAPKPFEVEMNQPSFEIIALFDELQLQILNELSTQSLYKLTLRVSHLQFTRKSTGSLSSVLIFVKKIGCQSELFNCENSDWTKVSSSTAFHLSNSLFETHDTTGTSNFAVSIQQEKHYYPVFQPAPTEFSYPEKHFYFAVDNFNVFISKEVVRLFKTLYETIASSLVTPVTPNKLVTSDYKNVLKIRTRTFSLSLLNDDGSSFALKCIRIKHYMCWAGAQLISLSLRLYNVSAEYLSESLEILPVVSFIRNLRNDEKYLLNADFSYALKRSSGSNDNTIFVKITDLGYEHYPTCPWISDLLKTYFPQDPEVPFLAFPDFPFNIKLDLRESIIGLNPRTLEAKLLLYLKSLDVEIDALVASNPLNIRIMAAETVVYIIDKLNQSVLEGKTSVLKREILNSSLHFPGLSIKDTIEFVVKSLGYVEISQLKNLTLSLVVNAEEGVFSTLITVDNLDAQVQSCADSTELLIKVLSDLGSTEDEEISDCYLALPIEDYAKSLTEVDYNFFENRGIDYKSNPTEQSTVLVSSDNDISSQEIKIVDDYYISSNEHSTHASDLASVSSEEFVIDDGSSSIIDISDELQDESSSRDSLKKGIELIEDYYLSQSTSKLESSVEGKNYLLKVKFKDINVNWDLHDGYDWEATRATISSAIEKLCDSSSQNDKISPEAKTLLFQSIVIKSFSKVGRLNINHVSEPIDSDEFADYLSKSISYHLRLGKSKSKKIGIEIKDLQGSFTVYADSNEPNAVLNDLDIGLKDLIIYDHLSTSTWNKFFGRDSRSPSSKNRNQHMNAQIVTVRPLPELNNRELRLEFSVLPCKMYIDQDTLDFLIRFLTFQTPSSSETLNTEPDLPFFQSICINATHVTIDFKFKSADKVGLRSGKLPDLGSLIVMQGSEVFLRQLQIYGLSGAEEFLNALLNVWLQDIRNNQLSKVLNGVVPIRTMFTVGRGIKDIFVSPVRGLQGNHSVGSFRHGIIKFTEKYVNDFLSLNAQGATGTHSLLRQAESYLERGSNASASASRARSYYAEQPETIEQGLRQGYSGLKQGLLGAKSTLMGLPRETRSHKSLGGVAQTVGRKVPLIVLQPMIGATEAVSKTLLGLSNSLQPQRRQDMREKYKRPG

The target of assay [1] is T1, FLAG-tagged S. pombe Rop1 (S. pombe) (UniProt O14355).
T1 sequence: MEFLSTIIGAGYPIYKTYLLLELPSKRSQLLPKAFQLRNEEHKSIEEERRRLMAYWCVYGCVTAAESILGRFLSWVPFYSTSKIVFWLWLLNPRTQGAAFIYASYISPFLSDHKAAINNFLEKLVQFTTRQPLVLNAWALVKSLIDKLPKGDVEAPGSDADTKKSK
Kind of assay: affinity purification with mass spectrometry; Rop1-FLAG or Yop1-FLAG at endogenous levels in S. pombe, logarithmic phase (YES) or starved (EMM-N, 2 h); membrane fraction solubilized in 1% DDM, M2 resin, elution with 3xFLAG peptide, label-free mass spectrometry.

Assay [2] deals with T2, FLAG-tagged S. pombe Yop1 (S. pombe) (UniProt Q9UU91).
T2 sequence: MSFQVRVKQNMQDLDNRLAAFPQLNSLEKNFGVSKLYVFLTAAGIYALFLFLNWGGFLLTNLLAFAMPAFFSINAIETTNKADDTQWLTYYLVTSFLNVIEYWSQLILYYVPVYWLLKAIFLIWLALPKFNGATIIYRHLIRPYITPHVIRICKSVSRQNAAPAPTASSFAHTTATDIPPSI
The description is as above.

As for Atg2 (from UniProt O94649 1-1646), in assay [1], the binding result is on record as “no binding”.

B1: Atg9 (protein, UniProt O74312 1-702)
chain: MFYQPAQNKKQYDDLADIEAQNNVPNTQEVLEAWQESLDSDEDESSPLEESNGFTISEHDDFVKSVPRKNNPTDLLYSGKLLDSDEPPSVHGNSSKVPSKHPSPSFPETTSLRNLQNGSKQKPALPNFNDPHFYNEDVTRSGHPNRSIYTQLPRNEFSNARVLWNRLSARDRVLWRWANVENLDSFLQQVYTYYTGKGLSCIIVHRLFQILTVSFVIGFTTFITSCIDWPAVTPHGSLAGVTKSQCIAQMSPITYLVLWLFLSFLLALWIYYLTDIPRLWQMREFYIHALKIATADMPTVSWQRVLYRLLKLKNVNALTAEDGRVVSLHNMKRLDAYAIANRIMRKDNYFIALINNGIINIELPLLHRRILTHTTEWNINWCIFNFVFDEQGQLRSAFRNPNSRKRLSEELRRRFIVAGFLNCLFAPIVAIYLVIHNFFRYFNEYHKNPGALSTRRYTPLALWTFREYNELQHFFDERINDSYAAASHYVSQFPDFNMIRLFKYISFILGSFTAILVIITVFDPELMVTFEITKDRSVLFYLGLFGSLIAVSRSIIPDETLVFAPEKALRRVITFTHYMPGWWSDNMHSKAVQQEFCSLYSYRIVNLLWEILGILLTPVLLFFTFPSCSQDIVDFFREHTINVEGVGYVCSYAVFQDNPPYESVASLVQSRKISPLIQNKPELSRISFYEQFNTEAPRRDLR
As to B1, the binding entry in assay [1] and in assay [2] was “no binding” in each case.

Source of the values: article PMC10409813.
